{"source": "patent US12466849B2", "about": "“Anti-viral and anti-tumoral compounds” (YEDA RESEARCH AND DEVELOPMENT CO. LTD, priority 2020, dated 2025)", "biological_target": "T1, mitochondrial DNA polymerase (POLG1) (Homo sapiens, UniProt P54098)", "T1 sequence (P54098 1-1239)": "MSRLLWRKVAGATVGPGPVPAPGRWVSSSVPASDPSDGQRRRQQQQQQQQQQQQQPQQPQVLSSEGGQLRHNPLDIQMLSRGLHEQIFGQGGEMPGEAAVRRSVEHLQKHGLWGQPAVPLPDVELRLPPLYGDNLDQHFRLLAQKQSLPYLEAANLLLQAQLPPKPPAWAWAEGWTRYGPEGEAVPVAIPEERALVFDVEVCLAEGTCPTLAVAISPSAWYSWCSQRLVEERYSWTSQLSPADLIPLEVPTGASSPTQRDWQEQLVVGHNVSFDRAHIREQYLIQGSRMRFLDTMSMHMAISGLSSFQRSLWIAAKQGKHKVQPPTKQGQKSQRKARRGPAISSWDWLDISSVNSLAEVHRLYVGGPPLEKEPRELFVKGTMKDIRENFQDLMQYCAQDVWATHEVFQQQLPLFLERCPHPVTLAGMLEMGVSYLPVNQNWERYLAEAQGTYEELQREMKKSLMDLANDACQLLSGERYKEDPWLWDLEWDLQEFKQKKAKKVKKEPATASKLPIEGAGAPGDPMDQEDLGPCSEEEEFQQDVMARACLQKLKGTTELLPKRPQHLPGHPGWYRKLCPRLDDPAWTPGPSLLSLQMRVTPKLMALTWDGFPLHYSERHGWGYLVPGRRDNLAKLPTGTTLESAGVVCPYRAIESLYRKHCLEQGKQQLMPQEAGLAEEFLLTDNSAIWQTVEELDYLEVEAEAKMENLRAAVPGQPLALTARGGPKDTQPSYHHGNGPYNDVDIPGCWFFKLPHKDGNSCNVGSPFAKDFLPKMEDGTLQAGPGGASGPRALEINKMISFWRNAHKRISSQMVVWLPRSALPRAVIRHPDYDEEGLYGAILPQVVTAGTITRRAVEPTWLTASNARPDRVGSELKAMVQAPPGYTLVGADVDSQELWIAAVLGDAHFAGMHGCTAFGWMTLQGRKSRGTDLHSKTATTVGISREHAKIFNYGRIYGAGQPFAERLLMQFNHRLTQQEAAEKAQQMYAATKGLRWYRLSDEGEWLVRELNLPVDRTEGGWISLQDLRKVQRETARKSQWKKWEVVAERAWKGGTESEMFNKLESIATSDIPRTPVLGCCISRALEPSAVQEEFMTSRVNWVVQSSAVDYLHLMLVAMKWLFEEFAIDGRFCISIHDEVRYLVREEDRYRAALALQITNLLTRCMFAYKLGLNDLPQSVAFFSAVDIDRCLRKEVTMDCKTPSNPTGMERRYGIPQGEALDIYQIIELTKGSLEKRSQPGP", "experiment": "Inhibition of mitochondrial DNA polymerase (POLG1)", "note": "For at least one compound, name, drawing or mass did not settle the structure."}
{"compound": "N#C[C@@]1(c2ccc3c(N)ncnn23)OC(COP(=O)(O)OP(=O)(O)OP(=O)(O)O)=C[C@H]1O", "note": "[ddhREM-TP, ddhRemdesivir]", "values": [{"measurement": "substrate for POLG1 (in words)", "result": "poor substrates"}]}
